The chains behind the UniProt entries cited, without tags or fusion partners.
UniProt P51685, whole entry: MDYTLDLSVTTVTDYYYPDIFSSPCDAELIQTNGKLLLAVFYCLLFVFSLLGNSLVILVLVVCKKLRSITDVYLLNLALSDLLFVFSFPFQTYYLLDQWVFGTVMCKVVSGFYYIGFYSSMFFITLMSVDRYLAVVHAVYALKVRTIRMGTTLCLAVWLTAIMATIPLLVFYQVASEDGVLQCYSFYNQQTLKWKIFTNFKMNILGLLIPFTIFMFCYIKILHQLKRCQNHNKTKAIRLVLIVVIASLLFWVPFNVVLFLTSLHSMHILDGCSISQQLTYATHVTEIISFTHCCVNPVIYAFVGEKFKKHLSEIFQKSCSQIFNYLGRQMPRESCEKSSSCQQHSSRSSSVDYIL

According to patent US20110053969A1, “NOVEL DIAZASIPIROAKANES AND THEIR USE FOR TREATMENT OF CCR8 MEDIATED DISEASES” (ASTRAZENECA AB, priority 2005, published 2011):

Experiments:
[1] = biological target: T1, human recombinant chemokine CCR8 receptor (Homo sapiens, UniProt P51685); test: CCL1 SPA binding assay; conditions: inhibition of 125I CCL1 binding to membranes from CHO-K1 cells transfected with human CCR8
T1 construct: purchased Euroscreen ES-136-M; host or cells: CHO-K1 cells (transfected), membrane preparation
Procedure: Membranes from CHO-K1 cells transfected with human recombinant chemokine CCR8 receptor (ES-136-M) were purchased from Euroscreen. Membrane preparations are stored at −70 C in 7.5 mM Tris-Cl pH 7.5, 12.5 mM MgCl2, 0.3 mM EDTA, 1 mM EGTA, 250 mM sucrose until used.
The CCR8 membranes (50.6 mg/ml) were preincubated with Wheat Germ Agglutinin SPA beads (4.05 mg/ml) in assay buffer (50 mM HEPES, 1 mM CaCl2x2H2O, 5 mM MgCl2x6H2O, 75 mM NaCl, 0.1% BSA) at pH=7.4 for 2 hours on ice. A 10-point dose-response curve (final concentrations 50 μM, 16.7 μM, 5.6 μM, 1.9 μM, 0.62 μM, 0.21 μM, 0.069 μM, 0.023 μM) was prepared by diluting compounds by serial dilution 1:3 in DMSO. In the screening plate (Polystyrene NBS plates, Costar Corning 3604) 1 μl from the DMSO solutions of compounds was transferred into each well. 1 μl of DMSO was added to the blank control wells and 1 μl unlabeled CCL1 (300 nM) was added to background control wells. 50 μl of the SPA bead-membrane mixture was added into each well. Finally, 50 μl. ([…]) ^125I CCL1 (2000 Ci/mM) was added to each well. Plates were then incubated at RT with shaking (700 rpm) for 90 minutes followed by 30 minutes at RT without shaking. The plate was read in a Wallac MicroBeta counter for 2 minutes/well.

[2] = Human microsomal stability assay; assay type: in vitro ADME; conditions: human microsomes (Xenotech), 1 mg microsomal protein/mL, 2.5 μM compound, 2 mM NADPH, pH 7.4, 37° C., read-out: Human Microsomal Stability (intrinsic Clearance, CLint)
Procedure: Human Microsomal Stability Assay
The assay is run in a 96-deepwell format at 1 mg microsomal protein (Xenotech)/mL in potassium phosphate buffer (pH 7.4) with a compound concentration of 2.5 μM and a NADPH concentration of 2 mM. Samples at four time-points (0, 5, 15 and 30 minutes) are withdrawn and the enzymatic reaction is terminated by protein precipitation with 1% acetic acid in acetonitrile. The incubations are performed on a thermostated plate (37° C.) placed on a Tecan worktable, and all liquid handling was performed robotically. After centrifugation of the samples, the supernatants are pooled in sets of four before they are analysed by liquid chromatography with tandem mass spectrometry detection (LC/MS/MS) using multiple reaction monitoring (MRM). Data are presented as intrinsic Clearance (CLint), μl/min/mg protein, calculated from the initial linear part of the compound disappearance curve.

IC50 [1]: 44 nM
microsomal CLint at 2.5 μM [2]: 15.7 µL/min/mg
Compound: COc1ccccc1Oc1ccccc1CN1CCC2(CC1)CCN(C(=O)c1cccn(C)c1=O)CC2 [Example 1, 3-({9-[2-(2-methoxyphenoxy)benzyl]-3,9-diazaspiro[5.5]undec-3-yl}carbonyl)-1-methylpyridin-2(1H)-one]
